The assay is described as follows: qHTS Assay for Lipid Storage Modulators in Drosophila S3 Cells.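 On cell number change: cells counted by Cell Tracker Red CMTPX staining in the red channel.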 Particulars: BODIPY lipid droplet fluorescence, 18-24 h; for cell number change: measured here: cell count max response, cells fed with added oleic acid. The essentials:
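Drosophila S3 cells got compounds at several concentrations plus oleic acid (400 uM solution). Laser-scanning cytometry with 488 nm excitation read lipid droplets at 500-530 nm and cells at 575-640 nm. Percent activity was relative to 20 uM Triacsin C.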
In general terms: qHTS replaces the single test concentration by a dilution series.

The mark [1] stands for this setting: measured here: cell number channel AC50, cells fed with added oleic acid.
Setting [2] is: measured here: lipid fluorescence (Fed channel) AC50, cells fed with added oleic acid.

This is one part of the list. Shown are side measurements of this screen, not its main read-out; they come without a call. Most of these compounds were active or inconclusive in the main read-out, so they are no random draw. The note in brackets gives the kind of curve behind each potency; many fits are weak.

The AC50 is the concentration giving half of the maximal activity seen. The low end stands for activity at low concentration, the high end for activity only at high concentration.

For the compound `COc1c(C(=O)N2CCCC2)ccc2ccccc12`, the cell number change is -116%. Also, the half-maximal activity concentration (AC50) under setting [1] is 25.9 µM [falling, partial curve]. Under setting [2], the concentration at half-maximal activity (AC50) was 5.8 µM [falling, partial curve].
Regarding `COC(=O)N/N=C/c1ccccc1`, the cell number change stood at 14.4%. In addition, the AC50 under setting [2] was 0.00517 µM [falling, full curve].
Consider `O=C(c1ccccc1NS(=O)(=O)c1ccccc1[N+](=O)[O-])N1CCCC1`, for which the cell number change came to 24.9%. Besides, the AC50 under setting [2] was 4.11 µM [rising, single point].
For `CCCCn1c(N)c(N(Cc2ccccc2OC)C(=O)C(C)Oc2ccc(F)cc2)c(=O)[nH]c1=O` (stereo not drawn), the cell number change was -18%. The AC50 under setting [2] is 32.6 µM [falling, single point].
Consider `CN(C)CCn1c2c(c(SCC(=O)NCc3ccccc3)nc1=O)CCC2`, for which the cell number change is -7.91%. The AC50 under setting [2] is 0.0517 µM [falling, full curve, poor fit].
Turning to `COc1ccc2sc(-c3ccccc3OC)c(-c3ccc(O)cc3)c2c1`, the cell number change was found to be 11.4%. Besides, the half-maximal activity concentration (AC50) under setting [1] was 0.082 µM [falling, single point].
As to `CCOC(=O)c1c(C)nc2sc3c(=O)[nH]cnc3c2c1-c1ccc(OC)cc1`, the cell number change is 11.1%. Further, the AC50 under setting [2] is 4.61 µM [rising, full curve, poor fit].
With `CC(=O)c1ccc(S(=O)(=O)NCCC(=O)OCC(=O)N2CCCC2=O)cc1`, the cell number change is -0.5%.
As to `O=C(NCC1CCCN1S(=O)(=O)c1cccs1)c1ccc(F)cc1` (stereo not drawn), the cell number change was -8.43%.
As for `CCOC(=O)C1CCN(C(=O)CNC(=O)OC(C)(C)C)CC1`, the cell number change was -8.55%. The concentration at half-maximal activity (AC50) under setting [2] is 23.1 µM [falling, partial curve].
Regarding `Cc1ccc(Cl)cc1NS(=O)(=O)c1cn(C)nc1C`, the cell number change is 9.68%. Further, the AC50 under setting [2] is 6.51 µM [falling, partial curve, poor fit].
Turning to `CN(C)S(=O)(=O)c1ccc(S(=O)(=O)N(CC(=O)Nc2ccccc2)Cc2ccco2)cc1`, the cell number change was -88.2%. Besides, the AC50 under setting [1] is 32.6 µM [falling, partial curve, poor fit]. Besides, the AC50 under setting [2] was 29.1 µM [falling, partial curve].
`CC(C1CCN(Cc2cn(C)nc2-c2cccc(Cl)c2)CC1)N1CCOCC1` (stereo not drawn): the cell number change is -12.6%. Moreover, the AC50 under setting [2] is 0.092 µM [falling, full curve, poor fit].
For the compound `CCOc1ccc(CCNC(=O)CCS(=O)(=O)c2ccc(Cl)cc2)cc1OCC`, the cell number change was -4.32%.
Consider `COc1ccc(-c2nn(CC(=O)N3CCCCC3)c(=O)c3ccccc23)cc1`, for which the cell number change is -28.4%.
For `Cc1ccc(C(=O)Nc2ccc(Cc3ccncc3)cc2)cc1[N+](=O)[O-]`, the cell number change is 72.4%. The AC50 under setting [1] is 29.1 µM [rising, single point]. For the same compound, the AC50 under setting [2] was 29.1 µM [rising, partial curve].
Turning to `CC(C)(C)c1ccc(-c2nc(-c3ccncc3)no2)cc1`, the cell number change was -49.7%. The AC50 under setting [1] was 20.6 µM [falling, partial curve, poor fit]. Besides, the AC50 under setting [2] was 20.6 µM [falling, partial curve].
As for `Cc1cc(C)c(S(=O)(=O)NCC(c2ccco2)N2CCc3ccccc3C2)c(C)c1` (stereo not drawn), the cell number change is 82.5%. In addition, the AC50 under setting [1] is 0.146 µM [falling, full curve, poor fit].
Take `COCCCNc1ccc([N+](=O)[O-])cc1C(=O)Nc1cccc(C)n1`: the cell number change is 14%. The AC50 under setting [1] is 4.11 µM [rising, single point]. Besides, the AC50 under setting [2] was 0.92 µM [rising, single point].
Regarding `Cc1cccc(N2C(=O)CC(Sc3nc(C)cc(C)n3)C2=O)c1` (stereo not drawn), the cell number change is 1.97%. Moreover, the AC50 under setting [2] was 13 µM [rising, partial curve].
For the compound `O=C(NC1CCCCC1)c1cc(-c2ccco2)on1`, the cell number change is -10.3%. The AC50 under setting [2] was 0.651 µM [falling, full curve].
`Cc1ccc(OCCCn2ccnc2)cc1C`: the cell number change worked out at 12.7%. Besides, the AC50 under setting [1] was 1.64 µM [rising, partial curve]. Besides, the AC50 under setting [2] was 2.31 µM [rising, partial curve].
Regarding `CCOC(=O)N1CCC(NC(=O)c2cccs2)CC1`, the cell number change was -21.5%. The AC50 under setting [2] is 20.6 µM [falling, partial curve].
Regarding `CCOc1cccc(/C=C2\NC(=S)N(c3ccccc3)C2=O)c1O`, the cell number change came to 5.68%. Also, the AC50 under setting [2] was 20.6 µM [rising, single point].
Take `COc1ccc(Cc2nnc(SCC(=O)c3ccc4c(c3)OCO4)o2)cc1`: the cell number change is -8.97%.
In the case of `CC1(C)CC(c2csc(N)n2)CCO1` (stereo not drawn), the cell number change was found to be 12.3%. In addition, under setting [2], the AC50 is 2.06 µM [rising, full curve].
`CC(=O)c1ccc(N2CCN(C(=S)NCc3ccco3)CC2)cc1`: the cell number change was found to be 4.63%. Moreover, the AC50 under setting [1] is 4.11 µM [rising, partial curve, poor fit].
Turning to `C=CCSc1ccccc1C(=O)Nc1ncn[nH]1`, the cell number change is -9.47%. Further, under setting [2], the AC50 was 4.11 µM [rising, partial curve, poor fit].
For the compound `CC(=O)C1=C(C)NC(SCC(N)=O)=C(C#N)C1c1cccnc1` (stereo not drawn), the cell number change was 12.5%. In addition, the concentration at half-maximal activity (AC50) under setting [2] is 0.82 µM [rising, partial curve, poor fit].
Regarding `COc1ccc(/C=N/NC(=O)Cc2csc(Nc3cccc(C(F)(F)F)c3)n2)c(OC)c1`, the cell number change stood at 18.3%.
Consider `COc1ccc(C2CC(=O)c3cnc(Nc4cc(C)cc(C)c4)nc3C2)cc1` (stereo not drawn), for which the cell number change was -9.35%.
With `Cc1c(S(=O)(=O)NCCc2ccccc2)c(=O)n(C)c(=O)n1C`, the cell number change was -16.4%. For the same compound, under setting [2], the AC50 is 2.59 µM [falling, full curve].
Turning to `Nc1sc(-c2ccccc2)n[n+]1Cc1cccc2cccnc12`, the cell number change was -22%. Also, the concentration at half-maximal activity (AC50) under setting [2] is 29.1 µM [falling, single point].
With `COCc1[nH]nc2c1C(c1ccc(OC)c(OC)c1)C(C#N)=C(N)O2` (stereo not drawn), the half-maximal activity concentration (AC50) under setting [1] was 0.92 µM [rising, partial curve].
As to `CCCNC(=O)Cc1cc(=O)[nH]c(=O)[nH]1`, the AC50 under setting [2] is 23.1 µM [falling, partial curve, poor fit].
On to `Oc1ccc(C2Nc3cccc4cccc(c34)N2)cc1`, for which the cell number change was -35.4%. Under setting [1], the AC50 was 18.4 µM [falling, partial curve, poor fit].
For `CCCCn1c(=O)[nH]c(=O)c2c1nc(COc1ccc(C#N)cc1)n2CCC`, the cell number change was 116%. Further, the AC50 under setting [1] was 13 µM [rising, partial curve]. Besides, the AC50 under setting [2] was 29.1 µM [rising, single point].
For the compound `S=c1[nH]nc(Nc2ccccc2Cl)s1`, the cell number change is -17.1%.
`O=C(NCC1COc2ccccc2O1)c1ccc(NC(=O)C(c2ccccc2)c2ccccc2)cc1` (stereo not drawn): the cell number change is -2.51%. Moreover, under setting [2], the AC50 is 2.06 µM [rising, partial curve].
On to `COc1ccc(NC(=O)C2CCCN(c3cnccn3)C2)cc1` (stereo not drawn), for which the cell number change is -15.5%.
Same read-out and setting: next, `CCOc1cc(/C=N/NC(N)=O)cc(Br)c1OCC(=O)Nc1cccc2ccccc12`: -4.71%.
As for `COc1cc(OC)cc(C(=O)NC(=S)N(Cc2ccccc2)C(C)C)c1`, the cell number change was -23.5%. Under setting [2], the AC50 is 29.1 µM [falling, single point].
Consider `CNc1nnc(SCC(=O)N2c3ccccc3NC(=O)CC2C)s1` (stereo not drawn), for which the cell number change was 7.55%. In addition, the AC50 under setting [2] is 0.291 µM [rising, full curve, poor fit].
With `COc1ccccc1CCC(=O)Nc1cc(S(=O)(=O)N2CCOCC2)ccc1N1CCCC1`, the cell number change was -37.3%. The half-maximal activity concentration (AC50) under setting [1] was 1.64 µM [falling, partial curve, poor fit]. Also, the AC50 under setting [2] is 0.092 µM [falling, partial curve, poor fit].
Take `COc1ccc(Cl)cc1NC(=O)C1CCCN(c2cc(C)nc3ncnn23)C1` (stereo not drawn): the cell number change was -17.7%. Moreover, the AC50 under setting [2] was 4.61 µM [rising, full curve].
With `Cc1nn(Cc2ccccc2Cl)c(C)c1C(=O)NCc1ccco1`, the cell number change is 5.21%. For the same compound, the AC50 under setting [2] was 0.13 µM [falling, full curve, poor fit].
Regarding `Cc1ccc(S(=O)(=O)N2CCCC2C(=O)NCc2ccncc2)cc1` (stereo not drawn), the cell number change is -6.49%. Moreover, the AC50 under setting [2] was 0.146 µM [falling, full curve, poor fit].
For `Cc1cc([N+](=O)[O-])ccc1NC(=O)CCC(=O)N1CCCC1`, the cell number change was -3.47%. Under setting [2], the concentration at half-maximal activity (AC50) was 29.1 µM [rising, single point].
On to `O=C(NNC1=C(C(=O)C(F)(F)F)CCC1)c1ccc(Cl)cc1`, for which the cell number change was -0.0707%.
`O=C(c1cc(-c2ccccc2)nc2ccccc12)N1CCCc2ccccc21`: the cell number change was 1.55%. Moreover, the AC50 under setting [2] was 29.1 µM [rising, single point].
For the compound `CCOC(=O)C1(C(=O)OCC)CC1c1ccccc1` (stereo not drawn), the cell number change is -26%. In addition, the AC50 under setting [1] is 0.82 µM [falling, full curve, poor fit]. For the same compound, under setting [2], the AC50 is 5.17 µM [falling, partial curve].
In the case of `NCCS`, the cell number change was -25.8%. The AC50 under setting [1] is 3.26 µM [falling, full curve, poor fit].
As to `COc1cc([C@@H]2c3cc4c(cc3[C@@H](O)[C@@H](CO)[C@@H]2CO)OCO4)cc(OC)c1O[Si](C)(C)C(C)(C)C`, the cell number change was -76%. Besides, the half-maximal activity concentration (AC50) under setting [1] is 18.4 µM [falling, partial curve]. In addition, the AC50 under setting [2] was 20.6 µM [falling, partial curve].
In the case of `CC(C)CC(COCc1ccc(Cl)cc1)N1CCN(C(=O)c2ccc(C(F)(F)F)cc2)CCC1=O` (stereo not drawn), the cell number change was -39%. Moreover, under setting [1], the AC50 was 0.92 µM [falling, full curve, poor fit]. The AC50 under setting [2] was 0.82 µM [falling, full curve, poor fit].
As for `COc1ccc(C(CCNCc2ccc(OC)c(OC)c2)c2ccc(F)cc2)cc1` (stereo not drawn), the cell number change is -23.3%. Moreover, under setting [2], the AC50 was 32.6 µM [falling, single point].
On to `C=CCn1c2ccccc2c2nnc(SCCN3CCCCC3)nc21`, for which the cell number change is -1.17%. Moreover, the AC50 under setting [2] was 2.91 µM [falling, partial curve].
For `COc1ccc(-c2c(C)n([O-])c3c([n+]2=O)CCCC3)c(OC)c1`, the cell number change was -15.4%. Under setting [1], the AC50 was 0.82 µM [falling, full curve, poor fit]. Besides, the AC50 under setting [2] was 3.66 µM [falling, full curve].
For `COCCOC(=O)C1=C(C)NC(C)=C(C(=O)OC(C)C)C1c1cccc([N+](=O)[O-])c1` (stereo not drawn), the cell number change is 0.492%. For the same compound, the AC50 under setting [2] is 1.64 µM [rising, partial curve, poor fit].
As to `Cc1cc(N2CCN(C)CC2)ccc1NC(=O)c1cccc(S(=O)(=O)N2CCc3ccccc3C2)c1`, the cell number change was -55.8%.
`CCCCNC(=O)CCn1c(=O)c2ccccc2n(Cc2ccc(F)cc2)c1=O`: the cell number change is 9.32%. In addition, under setting [2], the concentration at half-maximal activity (AC50) is 14.6 µM [rising, single point].

The values above are taken from PubChem BioAssay AID2685 (National Center for Advancing Translational Sciences (NCATS), 2010).
